Results as given in PubChem BioAssay AID624297 (National Center for Advancing Translational Sciences (NCATS), 2012).
Hit rate of the full screen: of about 340,000 compounds, about 6,200 (1.8%) were called active. This list was built around the results that the source calls inconclusive (neither active nor inactive); the mix of calls is not that of the screen. Calls follow the shape of the dose curve; as a rule, active = well fitted activation curve with a large enough effect; inconclusive = small, poorly fitted or top-dose-only effect; inactive = no such curve, though single readings can be large or run the other way. Potencies beside an inconclusive call are fits to weak or partial responses and may not hold up.

Assay: A quantitative high throughput screen for small molecules that induce DNA re-replication in SW480 colon adenocarcinoma cells. Also: nearly all actives have a fitted effect of over 55% in size. As to re-replication activation: % of control where 0% means no effect.
Settings: Hoechst DNA content imaging, 48 h; re-replication activation: at 46.1 µM (top of the series) unless noted
In short: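 Image-based DNA-content assay: after two days of treatment, nuclei were labelled with the DNA dye Hoechst and imaged, and hits were compounds raising the count of nuclei showing high fluorescence intensity.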
Potency is read from the fitted curve at half-maximal effect.

SMILES	Potency	re-replication activation
Nc1c(C(=O)Nc2nc3ccccc3s2)sc2nc(-c3cccs3)ccc12	inconclusive: 2.59 µM [activator, partial curve, poor fit]	
COC(=O)CCCCC1SCC(NC(=O)c2ccccc2)C1=O (stereo not drawn)	inconclusive: 29.1 µM [activator, single point]	
COc1ccc(-c2nc(-c3ccc(O)cc3O)cs2)cc1OC	inconclusive: 25.9 µM [activator, single point]	
COc1ccc(OCCNc2cc(Cl)ccc2[N+](=O)[O-])cc1	inconclusive: 29.1 µM [activator, single point]	
CC(=O)Nc1nc2ccccc2n1Cc1ccccc1C		inactive: 21.3%
COc1ccc(/C=C/C(=O)c2ccc([N+](=O)[O-])o2)cc1	active: 11.6 µM	
CC12COC3(P(=O)(c4ccccc4)c4ccccc4)CC1CCC23CP(=O)(c1ccccc1)c1ccccc1 (stereo not drawn)		inactive: 6.13%
OCCN1CCN(c2nc(-c3ccccc3O)nc3ccccc23)CC1	inconclusive: 29.1 µM [activator, single point]	
CC(C)(C)NC(=O)CC1C[C@H](C(=O)N2CCCCC2)[C@@]2(C)c3[nH]c4ccccc4c3CCN2C1=O (stereo partly drawn)	inconclusive: 1.64 µM [activator, partial curve, poor fit]	
CC(=O)c1c(N2CCN(Cc3ccccc3)CC2)nc(=S)n(Cc2ccccc2)c1C	inconclusive: 0.184 µM [activator, full curve, poor fit]	
CCc1ccc(C(C)NC(=S)NCc2ccc(F)cc2)cc1 (stereo not drawn)	inconclusive: 16.4 µM [activator, single point]	
COc1ccc(OC)c(C(c2nnnn2C2CCCC2)N2CCc3ccccc3C2)c1 (stereo not drawn)		inactive: -2.52%
O=c1[nH]c(NNC(=S)NC2CCCCC2)nc2c1C1(CCCC1)Cc1ccccc1-2	inconclusive: 6.51 µM [activator, partial curve, poor fit]	
COc1cc(COC(=O)c2cnc(C)cn2)c(OC)cc1Br		inactive: -3.82%
Cc1ccnn1CCSCC(=O)O		inactive: 0.097%
CC(C)NC(=O)c1ccccc1NC(=O)Cc1ccc(Br)cc1	inconclusive: 6.51 µM [activator, single point]	
CCOC(=O)C1=C(O)/C(=C/c2cn(CC(=O)N3CCCC3)c3ccccc23)SC1=Nc1ccccc1	inconclusive: 23.1 µM [activator, single point]	
CC(C)CC(=O)Nc1cccc(-c2csc(-c3ccccc3)n2)c1	inconclusive: 18.4 µM [activator, single point]	
COc1ccc(C2C(C#N)=C(C)NC3=C2S(=O)(=O)c2ccccc23)cc1 (stereo not drawn)	inconclusive: 29.1 µM [activator, single point]	
CCN1CCN(Cc2ccc(NC(=O)c3ccc(C)c(NC(=O)c4cccc(-c5cn[nH]c(=O)c5)c4)c3)cc2C(F)(F)F)CC1		inactive: -0.713%
O=C(NCc1ccco1)C1CC(c2ccc(C(F)(F)F)cc2)=NO1 (stereo not drawn)	inconclusive: 2.06 µM [activator, partial curve, poor fit]	
CCOc1cc(S(=O)(=O)NCc2ccc(OC)cc2)c(OCC)cc1-n1cnnn1	inconclusive: 18.4 µM [activator, single point]	

A portion taken from the entries so far:
SMILES	Potency	re-replication activation
CCN1CCN(Cc2ccc(NC(=O)c3ccc(C)c(NC(=O)c4cccc(-c5cn[nH]c(=O)c5)c4)c3)cc2C(F)(F)F)CC1		inactive: -0.713%
O=C(NCc1ccco1)C1CC(c2ccc(C(F)(F)F)cc2)=NO1 (stereo not drawn)	inconclusive: 2.06 µM [activator, partial curve, poor fit]	
CCOc1cc(S(=O)(=O)NCc2ccc(OC)cc2)c(OCC)cc1-n1cnnn1	inconclusive: 18.4 µM [activator, single point]	

(more compounds)

SMILES	Potency	re-replication activation
N/C(=N\N=Cc1ccc2c(c1)OCO2)NN=Cc1ccc2c(c1)OCO2	inconclusive: 29.1 µM [activator, single point]	
Cc1ccc(C)c(S(=O)(=O)N2CCCC2CNC(=O)C(=O)NCc2cccs2)c1 (stereo not drawn)		inactive: -567%
O=C(N/N=C/C=C\c1ccccc1[N+](=O)[O-])c1ccco1	active: 25.9 µM	
Cc1cccc(N2CCN(C(=O)C3CCN(S(=O)(=O)c4cccc5cccnc45)CC3)CC2C)c1 (stereo not drawn)		inactive: 15.3%
CCOC(=O)[C@H](CCc1ccccc1)N[C@@H](C)C(=O)N1[C@H](C(=O)O)C[C@H]2CCCC[C@@H]21		inactive: -6.39%
C=C(C)c1cccc(C(C)(C)NC(=O)Nc2nncs2)c1	inconclusive: 23.1 µM [activator, single point]	
CC(C)CC(COCc1ccc(C(F)(F)F)cc1)N1CCN(C(=O)c2ccc(C(F)(F)F)cc2)CCC1=O (stereo not drawn)	inconclusive: 11.6 µM [activator, partial curve]	
Cn1c(SCC(=O)Nc2ccc(C(=O)O)cc2)nc2scc(-c3ccccc3Cl)c2c1=O	inconclusive: 25.9 µM [activator, partial curve, poor fit]	
O=C(c1cc(COc2ccc3ncccc3c2)on1)N1CCCCCC1	inconclusive: 23.1 µM [activator, single point]	
COc1cc(OC)nc(Oc2ccccc2/C=N/O)n1		inactive: 0.604%
CC(=O)c1cccc(NC(=O)/C(=C\c2cccnc2)NC(=O)c2ccc(C)cc2)c1	inconclusive: 29.1 µM [activator, single point]	
Cc1cc2nc(/C=C/c3cccnc3)[nH]c2cc1C	inconclusive: 5.8 µM [activator, partial curve, poor fit]	
COc1ccccc1-c1cc(C(F)(F)F)nc(S(=O)(=O)CCCC(=O)N2CCOCC2)n1	inconclusive: 5.17 µM [activator, full curve, poor fit]	
CC(=O)Nc1c(-c2ccccc2)nc2cc(C)ccn12		inactive: -1.3%
COc1ccc(-c2coc3cc4oc(=O)cc(-c5ccccc5)c4cc23)cc1F	inconclusive: 3.16 µM [activator, full curve, poor fit]	
O=C(NCc1cccs1)c1noc2c1CCCCC2	inconclusive: 16.4 µM [activator, single point]	
O=C(Nc1ccncc1)c1ccc(-c2ccccc2)cc1	inconclusive: 23.1 µM [activator, single point]	
CC1CCCC(C)N1S(=O)(=O)c1ccc(NC(=O)CCN2C(=O)C3CC=CCC3C2=O)cc1 (stereo not drawn)		inactive: -0.764%
O=C1CCCN1CCC1CCCCN1Cc1nc(COc2ccccc2)no1 (stereo not drawn)	inconclusive: 0.731 µM [activator, full curve, poor fit]	
Oc1ccc(/C=N/Nc2ccnc3cc(Cl)ccc23)cc1O	active: 16.4 µM	
COCCNC(=O)CCCn1c(=O)c2cc(OC)c(OC)cc2n(CC(=O)c2cccc(OC)c2)c1=O	inconclusive: 3.66 µM [activator, full curve, poor fit]	
